The target of one assay is T1, Flag-tagged SMYD3 (UniProt Q9CWR2).
T1 sequence: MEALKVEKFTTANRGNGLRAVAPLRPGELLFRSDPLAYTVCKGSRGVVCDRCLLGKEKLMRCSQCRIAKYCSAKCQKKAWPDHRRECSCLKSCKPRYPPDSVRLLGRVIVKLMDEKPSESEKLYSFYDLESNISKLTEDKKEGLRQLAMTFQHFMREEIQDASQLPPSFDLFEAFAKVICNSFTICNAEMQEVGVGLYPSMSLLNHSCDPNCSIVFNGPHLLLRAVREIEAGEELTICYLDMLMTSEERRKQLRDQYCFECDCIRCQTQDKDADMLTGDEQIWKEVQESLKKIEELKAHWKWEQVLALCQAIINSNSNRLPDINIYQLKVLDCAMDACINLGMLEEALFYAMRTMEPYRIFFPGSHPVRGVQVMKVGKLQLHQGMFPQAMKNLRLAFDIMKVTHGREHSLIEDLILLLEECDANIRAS
Nature of the assay: co-IP; Flag-SMYD3 and GFP-WT-α-tubulin expressed in HEK293T cells; anti-Flag or anti-GFP antibodies coupled to protein A agarose beads; Western blot.

In a further assay the target is T2, GST-SMYD3 (mouse) (UniProt Q9CWR2).
T2 sequence: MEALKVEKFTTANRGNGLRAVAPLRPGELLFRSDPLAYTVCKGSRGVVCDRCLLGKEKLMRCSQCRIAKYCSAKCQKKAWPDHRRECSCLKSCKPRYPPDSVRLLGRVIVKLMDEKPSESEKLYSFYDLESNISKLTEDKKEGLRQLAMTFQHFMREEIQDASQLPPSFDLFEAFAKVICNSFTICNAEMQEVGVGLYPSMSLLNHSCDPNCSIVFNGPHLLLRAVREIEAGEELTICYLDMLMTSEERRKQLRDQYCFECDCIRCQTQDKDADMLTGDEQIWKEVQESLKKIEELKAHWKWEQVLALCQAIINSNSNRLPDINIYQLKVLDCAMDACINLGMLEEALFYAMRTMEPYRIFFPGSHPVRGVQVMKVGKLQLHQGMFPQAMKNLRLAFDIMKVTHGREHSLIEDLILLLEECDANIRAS
Nature of the assay: pull-down; purified GST-SMYD3 or its truncations on glutathione Sepharose beads, incubated with 1 mg whole-cell lysate from RCTE cells in cell lysis buffer overnight at 4 °C; blot with α-tubulin antibody; only the target purified.

Assay [1] has as its target GFP-tagged wild-type α-tubulin. Nature of the assay: co-IP; Flag-SMYD3 and GFP-WT-α-tubulin expressed in HEK293T cells; anti-Flag or anti-GFP antibodies coupled to protein A agarose beads; Western blot.

These are yes or no findings as the source states them, for the method shown. In cells and extracts the contact can be indirect. A result given as binding can be weak or reduced; the word gives no strength. Where a sequence is shown, tags or fusion partners need not be part of it.

GFP-tagged wild-type α-tubulin: the binding entry with Flag-tagged SMYD3 is on record as “binds”.

α-tubulin (human (endogenous in RCTE)): the binding result in the assay with GST-SMYD3 (mouse) is “binds”.

B1: Flag-tagged SMYD3 (enzyme, UniProt Q9CWR2 1-428)
chain: MEALKVEKFTTANRGNGLRAVAPLRPGELLFRSDPLAYTVCKGSRGVVCDRCLLGKEKLMRCSQCRIAKYCSAKCQKKAWPDHRRECSCLKSCKPRYPPDSVRLLGRVIVKLMDEKPSESEKLYSFYDLESNISKLTEDKKEGLRQLAMTFQHFMREEIQDASQLPPSFDLFEAFAKVICNSFTICNAEMQEVGVGLYPSMSLLNHSCDPNCSIVFNGPHLLLRAVREIEAGEELTICYLDMLMTSEERRKQLRDQYCFECDCIRCQTQDKDADMLTGDEQIWKEVQESLKKIEELKAHWKWEQVLALCQAIINSNSNRLPDINIYQLKVLDCAMDACINLGMLEEALFYAMRTMEPYRIFFPGSHPVRGVQVMKVGKLQLHQGMFPQAMKNLRLAFDIMKVTHGREHSLIEDLILLLEECDANIRAS
Regarding B1, the binding entry in assay [1] is “binds”.
